# Source: US12503439B2, “Heteroaryl compounds for the treatment of pain” (VERTEX PHARMACEUTICALS INCORPORATED, priority 2022, dated 2025)
# The chains behind the UniProt entries cited, without tags or fusion partners. Residues count along the entry.
# UniProt Q9Y5Y9, 126-1722 limits assumed: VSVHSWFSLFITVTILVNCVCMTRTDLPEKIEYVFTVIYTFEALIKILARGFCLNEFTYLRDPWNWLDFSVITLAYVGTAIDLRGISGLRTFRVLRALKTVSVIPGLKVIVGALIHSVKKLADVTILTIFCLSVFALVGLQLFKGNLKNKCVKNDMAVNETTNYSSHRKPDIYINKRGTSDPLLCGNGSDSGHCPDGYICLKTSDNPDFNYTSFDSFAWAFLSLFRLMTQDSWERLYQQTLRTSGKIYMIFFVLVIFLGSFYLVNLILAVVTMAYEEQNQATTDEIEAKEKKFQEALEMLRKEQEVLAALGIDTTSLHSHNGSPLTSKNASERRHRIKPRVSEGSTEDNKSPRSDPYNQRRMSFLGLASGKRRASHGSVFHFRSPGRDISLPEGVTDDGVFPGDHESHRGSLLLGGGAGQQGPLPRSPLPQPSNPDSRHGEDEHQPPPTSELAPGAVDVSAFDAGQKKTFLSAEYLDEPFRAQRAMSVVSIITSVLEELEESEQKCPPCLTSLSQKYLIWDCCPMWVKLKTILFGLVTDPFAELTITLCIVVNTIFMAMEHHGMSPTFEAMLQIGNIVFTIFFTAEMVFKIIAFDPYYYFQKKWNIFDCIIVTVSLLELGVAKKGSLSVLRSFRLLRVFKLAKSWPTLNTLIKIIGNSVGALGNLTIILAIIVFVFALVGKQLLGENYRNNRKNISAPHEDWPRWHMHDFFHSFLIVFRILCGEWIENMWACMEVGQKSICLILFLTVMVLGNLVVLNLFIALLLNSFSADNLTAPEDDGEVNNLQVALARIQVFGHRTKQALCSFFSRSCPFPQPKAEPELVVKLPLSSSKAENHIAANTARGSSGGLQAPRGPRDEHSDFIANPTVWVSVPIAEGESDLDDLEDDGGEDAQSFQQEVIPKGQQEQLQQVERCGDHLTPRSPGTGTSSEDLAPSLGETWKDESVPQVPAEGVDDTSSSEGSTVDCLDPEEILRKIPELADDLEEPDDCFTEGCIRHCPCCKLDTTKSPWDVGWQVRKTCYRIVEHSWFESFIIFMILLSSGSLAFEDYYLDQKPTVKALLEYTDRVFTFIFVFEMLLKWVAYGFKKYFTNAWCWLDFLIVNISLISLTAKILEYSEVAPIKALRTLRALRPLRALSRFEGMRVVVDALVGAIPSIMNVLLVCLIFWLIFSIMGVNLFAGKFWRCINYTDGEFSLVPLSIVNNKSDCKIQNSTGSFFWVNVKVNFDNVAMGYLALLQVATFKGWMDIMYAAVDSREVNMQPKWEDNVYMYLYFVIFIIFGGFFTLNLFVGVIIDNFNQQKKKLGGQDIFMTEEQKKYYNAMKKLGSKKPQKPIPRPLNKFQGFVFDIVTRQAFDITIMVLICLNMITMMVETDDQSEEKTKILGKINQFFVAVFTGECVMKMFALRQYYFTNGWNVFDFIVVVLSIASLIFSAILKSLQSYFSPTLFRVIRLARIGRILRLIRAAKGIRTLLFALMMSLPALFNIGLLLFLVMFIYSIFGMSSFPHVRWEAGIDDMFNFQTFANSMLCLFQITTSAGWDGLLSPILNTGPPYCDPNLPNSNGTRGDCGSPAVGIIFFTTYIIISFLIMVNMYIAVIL
# Some entries share one result that the patent states for a list of compounds.
# Target: truncated form of human NaV 1.8 with full channel activity (expressed in HEK cells) (Homo sapiens, UniProt Q9Y5Y9)
# Assay: E-VIPR assay detecting and measuring NaV inhibition properties (electrical stimulation, membrane potential FRET dyes)
# Type: cell-based
# Settings: HEK cells expressing truncated human NaV 1.8, KIR2.1 BacMam; 11-point dose response; 30 min compound incubation; stimulation 10 Hz for 10 s; read-out: measured IC50 value in the E-VIPR Assay
# Excerpt: E-VIPR Assay Detecting and Measuring NaV Inhibition Properties
# Sodium ion channels are voltage-dependent proteins that can be activated by inducing membrane voltage changes by applying electric fields. […] The instrument comprises a microtiter plate handler, an optical system for exciting the coumarin dye while simultaneously recording the coumarin and oxonol emissions, a waveform generator, a current- or voltage-controlled amplifier, and parallel electrode pairs that are inserted into assay plate wells. Under integrated computer control, this instrument passes user-programmed electrical stimulus protocols to cells within the wells of the microtiter plate.
# 16-20 hours prior to running the assay on E-VIPR, HEK cells expressing a truncated form of human NaV 1.8 with full channel activity were seeded into microtiter 384-well plates, pre-coated with matrigel, at a density of 25,000 cells per well. 2.5-5% KIR2.1 BacMam virus was added to the final cell suspension before seeding into cell plates. […] Cells were expanded in 5-layer CellSTACK culture chambers or cell culture flasks with vented caps, with 90-95% humidity and 5% CO2.
# Reagents and Stock Solutions:
# The concentration used can be dependent on viral titer of each batch.
# Human Serum (HS, Millipore #S1P1-01KL, or Sigma SLBR5469V and SLBR5470V as a 50%/50% mixture, for 25% assay final concentration)
# Hexyl Dye Solution (2× Concentration):
# Bath 1 Buffer containing 0.5% β-cyclodextrin (made fresh prior to each use, Sigma #C4767), 8 μM CC2-DMPE and 2 μM DiSBAC6(3). The solution was made by adding 10% Pluronic F127 stock equal to combined volumes of CC2-DMPE and DiSBAC6(3). The order of preparation was first mix Pluronic and CC2-DMPE, then add DiSBAC6(3), then while vortexing add Bath 1/β-Cyclodextrin.
# Assay Protocol (7 Key Steps):
# The compound plate was backfilled with 45 μL per well of Compound Loading Buffer resulting in a 240-fold dilution of compound following a 1:1 transfer of compound into the cell plate (see Step 6). […] This assay dilution protocol was adjusted to enable a higher dose range to be tested in the presence of HS or if the final assay volume was altered. • 2) Hexyl Dye Solution was prepared. • 3) Cell plates were prepared. On the day of the assay, the media was aspirated, and the cells were washed three times with 80 μL of Bath-1 buffer, maintaining 25 μL residual volume in each well. • 4) 25 μL per well of Hexyl Dye Solution was dispensed into the cell plates. The cells were incubated for 20 minutes at room temperature or ambient conditions in darkness. • 5) 45 μL per well of Compound Loading Buffer was dispensed into compound plates. • 6) The cell plates were washed three times with 80 μL per well of Bath-1 Buffer, leaving […] of residual volume. Then 25 μL per well from compound plate was transferred to each cell plate. The mixture was incubated for 30 minutes at room temperature/ambient conditions. • 7) The cell plate containing compound was read on E-VIPR using the current-controlled amplifier to deliver stimulation wave pulses using a symmetrical biphasic waveform. […] A pre-stimulus recording was performed for each well for 0.5 seconds to obtain the un-stimulated intensities baseline. The stimulatory waveform was followed by 0.5 seconds of post-stimulation recording to examine the relaxation to the resting state. All E-VIPR responses were measured at 200 Hz acquisition rate. Data Analysis:
# The response as a function of time was reported as the ratios obtained using the following formula: […]
# The data were normalized by calculating the initial (Ri) and final (Rf) ratios. These were the average ratio values during part or all of the pre-stimulation period and during sample points during the stimulation period. The fluorescence ratio (Rf/Ri) was then calculated and reported as a function of time.
# Control responses were obtained by performing assays in the presence of the positive control, and in the absence of pharmacological agents (DMSO vehicle negative control).
row,SMILES,IC50
1,"Cc1c(Oc2ncc(C(F)(F)F)c(C)c2-c2cc(=O)c3c(-c4cc[nH]c(=O)c4)nccc3[nH]2)ccc(F)c1F [Compound 211, 2-[2-(3,4-difluoro-2-methyl-phenoxy)-4-methyl-5-(trifluoromethyl)-3-pyridyl]-5-(2-oxo-1H-pyridin-4-yl)-1H-1,6-naphthyridin-4-one]",< 500 nM
2,"CC1(c2nn(C3CCC(F)(F)CC3)c(-c3cc(=O)c4c(C(N)=O)nccc4[nH]3)c2Br)CCC1 [Compound 367, 2-[4-bromo-2-(4,4-difluorocyclohexyl)-5-(1-methylcyclobutyl)pyrazol-3-yl]-4-oxo-1H-1,6-naphthyridine-5-carboxamide]",< 500 nM
3,"Cc1cc(-c2cc(=O)c3cc(F)ccc3[nH]2)c(N2CCCC(F)(F)CC2)nc1C(F)(F)F [Compound 70, 2-[2-(4,4-difluoroazepan-1-yl)-5-methyl-6-(trifluoromethyl)-3-pyridyl]-6-fluoro-1H-quinolin-4-one]",< 500 nM
4,"Cc1c(Oc2nc3ccccc3cc2-c2cc(=O)c3c(C)nccc3[nH]2)ccc(F)c1F [Compound 13, 2-[2-(3,4-difluoro-2-methyl-phenoxy)-3-quinolyl]-5-methyl-1H-1,6-naphthyridin-4-one]",< 500 nM
5,"Cc1c(Oc2ncc(C(F)(F)F)c(C)c2-c2cc(=O)c3c(N4C[C@H]5COC[C@H]5C4)nccc3[nH]2)ccc(F)c1F [Compound 173, 5-[(3aS,6aR)-1,3,3a,4,6,6a-hexahydrofuro[3,4-c]pyrrol-5-yl]-2-[2-(3,4-difluoro-2-methyl-phenoxy)-4-methyl-5-(trifluoromethyl)-3-pyridyl]-1H-1,6-naphthyridin-4-one]",< 500 nM
6,"Cc1c(C(C)(C)C)nn(C2CCC(F)(F)CC2)c1-c1cc(=O)c2c(-c3ncnn3C)nccc2[nH]1 [Compound 232, 2-[5-tert-butyl-2-(4,4-difluorocyclohexyl)-4-methyl-pyrazol-3-yl]-5-(2-methyl-1,2,4-triazol-3-yl)-1H-1,6-naphthyridin-4-one]",< 500 nM
7,"Cc1c(Oc2ncc(C(F)(F)F)c(C)c2-c2cc(=O)c3c(-c4cccn(C)c4=O)nccc3[nH]2)ccc(F)c1F [Compound 216, 2-[2-(3,4-difluoro-2-methyl-phenoxy)-4-methyl-5-(trifluoromethyl)-3-pyridyl]-5-(1-methyl-2-oxo-3-pyridyl)-1H-1,6-naphthyridin-4-one]",< 500 nM
8,"COc1c(Oc2cc(C(F)(F)F)c(F)cc2-c2cc(=O)c3c(C(N)=O)nccc3[nH]2)ccc(F)c1F [Compound 152, 2-[2-(3,4-difluoro-2-methoxy-phenoxy)-5-fluoro-4-(trifluoromethyl)phenyl]-4-oxo-1H-1,6-naphthyridine-5-carboxamide]",< 500 nM
9,"COc1cc(F)ccc1Oc1cc(C(C)(C)C)cc(C)c1-c1[nH]c2ccccc2c(=O)c1CO [Compound 338, 2-[4-tert-butyl-2-(4-fluoro-2-methoxy-phenoxy)-6-methyl-phenyl]-3-(hydroxymethyl)-1H-quinolin-4-one]",< 500 nM
10,"Cc1c(Oc2ncc(C(F)(F)F)c(C)c2-c2cc(=O)c3c(-c4ncnn4C)nccc3[nH]2)ccc(F)c1F [Compound 224, 2-[2-(3,4-difluoro-2-methyl-phenoxy)-4-methyl-5-(trifluoromethyl)-3-pyridyl]-5-(2-methyl-1,2,4-triazol-3-yl)-1H-1,6-naphthyridin-4-one]",< 500 nM
11,"Cc1c(Oc2cnc(C(F)(F)F)c(C)c2-c2cc(=O)c3c(C(N)=O)nccc3[nH]2)ccc(F)c1F [Compound 49, 2-[5-(3,4-difluoro-2-methyl-phenoxy)-3-methyl-2-(trifluoromethyl)-4-pyridyl]-4-oxo-1H-1,6-naphthyridine-5-carboxamide]",< 500 nM
12,"COc1cc(F)ccc1Oc1cc(C(C)(C)C)cc(C)c1-c1[nH]c2ccccc2c(=O)c1Br (single isomer, unassigned) [Compound 319, 3-bromo-2-[4-tert-butyl-2-(4-fluoro-2-methoxy-phenoxy)-6-methyl-phenyl]-1H-quinolin-4-one]",< 500 nM
13,"Cc1nc(N2CCC3(CC2)CC3)c(-c2cc(=O)c3c(C(N)=O)nccc3[nH]2)cc1C(F)(F)F [Compound 94, 2-[2-(6-azaspiro[2.5]octan-6-yl)-6-methyl-5-(trifluoromethyl)-3-pyridyl]-4-oxo-1H-1,6-naphthyridine-5-carboxamide]",< 500 nM
14,"COc1c(F)ccc(Oc2cc(C(F)(F)F)c(F)cc2-c2[nH]c3ccnc(C(N)=O)c3c(=O)c2OC)c1OC [Compound 329, 2-[5-fluoro-2-(4-fluoro-2,3-dimethoxy-phenoxy)-4-(trifluoromethyl)phenyl]-3-methoxy-4-oxo-1H-1,6-naphthyridine-5-carboxamide]",< 500 nM
15,"O=c1cc(-c2cc(C(F)(F)F)ccc2OCc2ccccc2)[nH]c2ccccc12 [Compound 5, 2-[2-benzyloxy-5-(trifluoromethyl)phenyl]-1H-quinolin-4-one]",< 500 nM
16,"Cc1c(Oc2ncc(C(F)(F)F)c(C)c2-c2cc(=O)c3c(C(=O)NC(C)(C)CO)nccc3[nH]2)ccc(F)c1F [Compound 258, 2-[2-(3,4-difluoro-2-methyl-phenoxy)-4-methyl-5-(trifluoromethyl)-3-pyridyl]-N-(2-hydroxy-1,1-dimethyl-ethyl)-4-oxo-1H-1,6-naphthyridine-5-carboxamide]",< 500 nM
17,"Cc1c(Oc2ncc(C(F)(F)F)c(C)c2-c2cc(=O)c3c(NCC4CNC(=O)C4)nccc3[nH]2)ccc(F)c1F (centres unmarked) [Compound 178, 2-[2-(3,4-difluoro-2-methyl-phenoxy)-4-methyl-5-(trifluoromethyl)-3-pyridyl]-5-[(5-oxopyrrolidin-3-yl)methylamino]-1H-1,6-naphthyridin-4-one]",< 500 nM
18,"NC(=O)c1nccc2[nH]c(-c3cc4ccccc4nc3N3C[C@@H]4CC(F)(F)C[C@@H]4C3)cc(=O)c12 [Compound 280, 2-[2-[(3aR,6aS)-5,5-difluoro-1,3,3a,4,6,6a-hexahydrocyclopenta[c]pyrrol-2-yl]-3-quinolyl]-4-oxo-1H-1,6-naphthyridine-5-carboxamide]",< 500 nM
19,"Cc1c(Oc2ncc(C(F)(F)F)c(C)c2-c2cc(=O)c3c(C(=O)Nc4ccnc(C(N)=O)c4)nccc3[nH]2)ccc(F)c1F [Compound 276, N-(2-carbamoyl-4-pyridyl)-2-[2-(3,4-difluoro-2-methyl-phenoxy)-4-methyl-5-(trifluoromethyl)-3-pyridyl]-4-oxo-1H-1,6-naphthyridine-5-carboxamide]",< 500 nM
20,"Cc1c(Oc2ncc(C(F)(F)F)c(C)c2-c2cc(=O)c3c(-c4ccn[nH]4)nccc3[nH]2)ccc(F)c1F [Compound 387, 2-(2-(3,4-difluoro-2-methylphenoxy)-4-methyl-5-(trifluoromethyl)pyridin-3-yl)-5-(1H-pyrazol-5-yl)-1,6-naphthyridin-4(1H)-one]",< 500 nM
21,"Cc1cc(-c2cc(=O)c3c(O)nccc3[nH]2)c(N2CCCC(F)(F)CC2)nc1C(F)(F)F [Compound 190, 2-[2-(4,4-difluoroazepan-1-yl)-5-methyl-6-(trifluoromethyl)-3-pyridyl]-5-hydroxy-1H-1,6-naphthyridin-4-one]",< 500 nM
22,"CC1(C)CCN(c2nc3ccccc3cc2-c2cc(=O)c3c(C(N)=O)nccc3[nH]2)CC1 [Compound 288, 2-[2-(4,4-dimethyl-1-piperidyl)-3-quinolyl]-4-oxo-1H-1,6-naphthyridine-5-carboxamide]",< 500 nM
23,"Cc1cc(F)ccc1Oc1ncc(C(F)(F)F)c(C)c1-c1cc(=O)c2c(C(N)=O)nccc2[nH]1 [Compound 41, 2-[2-(4-fluoro-2-methyl-phenoxy)-4-methyl-5-(trifluoromethyl)-3-pyridyl]-4-oxo-1H-1,6-naphthyridine-5-carboxamide]",< 500 nM
